Data on one molecule can be found in patent publication US7217525 (Johns Hopkins, dated 2007).

These are yes or no findings as the source states them, for the method shown. Binding seen in cells or lysates may run through a third protein. A result given as binding can be weak or reduced; the word gives no strength.

Experiment [1] addresses AMPA receptor subunit GluR2. The experiment is described as follows: co-immunoprecipitation from co-transfected HEK-293 cells.
For experiment [2], the target named is AMPA receptor subunit GluR3. The experiment is described as above.

B1: C-terminal myc-tagged version of Narp (designated myc-Narp) (ligand, not shown: small tags and cut ends)
chain: AGQAQDNPIPGSRFVCTALPPEAARAGCPLPAMPMQGGALSPEEELRAAVLHWRETVVQQKETLGAQREAIRELTSKLARCEGLAGGKARGTGATGKDTMGDLPRDPGHVVEQLSRSLQTLKDRLESLELQLHTNASNAGLPSDFREVLQRRLGELERQLLRKVAELEDEKSLLHNETSAHRQKTENTLNALLQRVTELERGNSAFKSPDAFKVSLPLRTNYLYGKIKKTLPELYAFTICLWLRSSASPGIGTPFSYAVPGQANEIVLIEWGNNPIELLINDKVAQLPLFVSDGKWHHICITWTTRDGMWEAFQDGEKLGTGENLAPWHPIKPGGVLILGQEQDTVGGRFDATQAFVGELSQFNIWDRVLRAQEIINIANCSTNMPGNIIPWVDNNVDVFGGASKWPVETCEERLLDL
Regarding B1, the binding entry in experiment [1] and in experiment [2] was “binds” throughout.
